At least one compound was matched to its structure with a doubt left.
Assays:
P-selectin = experiment: Heparin inhibition of LS180 cell binding to immobilized P-selectin chimera; parameters: species or system Human; settings: heparin levels normalized to anti-Xa activity, percent of control binding
L-selectin = experiment: Heparin inhibition of LS180 cell binding to immobilized L-selectin chimera; parameters: species or system Human; settings: heparin levels normalized to anti-Xa activity, percent of control binding
MC38GFP cells = experiment: Carcinoma experimental metastasis assay; format: in vivo, mouse; settings: for metastasis (fluorescence of lung homogenate): day 27
B16F1 cells = experiment: Melanoma experimental metastasis assay; format: in vivo, mouse; settings: 3× dose s.c. 30 min before i.v. B16F1 cells; day 17
Description: FIG. 4 depicts heparins with selectin-inhibitory activity that inhibit metastasis of melanoma cells. Mice were injected subcutaneously with “1×” heparin (A) or “3×” heparin (B) (or PBS as a control), and 30 minutes later were injected intravenously with B16F1 cells. After 17 days, mice were euthanized, lungs perfused with formalin through the trachea and then allowed to fix in formalin for a minimum of 24 hours. Metastasis was quantified by measuring lung weight, which correlated well with the physical appearance of the lungs, documented by photography (representative pictures are shown below quantification). Open circles each represent one mouse and horizontal bars represent mean lung weights. P-values were determined by a Student's T-test, assuming two-tailed, unequal distribution.
Melanoma Experimental Metastasis Assay: Mice were injected with heparin and 500,000 B16F1 cells using the protocol described for the carcinoma metastasis assay. […] Lung weights were determined by removing the lungs from formalin, briefly setting them on filter paper to remove excess liquid, and then weighing them on a Sartorius analytical scale.
Heparin Inhibition of Melanoma Metastasis is Also Dependent on Selectin-Inhibitory Activity. […] Seventeen days following injection, the lungs were excised and evaluated for the presence of metastatic foci. […]

For `CO[C@H]1O[C@H](COS(=O)(=O)O)[C@@H](O[C@@H]2O[C@@H](C(=O)O)[C@@H](O[C@H]3O[C@H](COS(=O)(=O)O)[C@@H](O[C@@H]4O[C@H](C(=O)O)[C@@H](O[C@H]5O[C@H](COS(=O)(=O)O)[C@@H](O)[C@H](O)[C@H]5NS(=O)(=O)O)[C@H](O)[C@H]4O)[C@H](OS(=O)(=O)O)[C@H]3NS(=O)(=O)O)[C@H](O)[C@H]2OS(=O)(=O)O)[C@H](O)[C@H]1NS(=O)(=O)O` [FOND, Fondaparinux], the “inhibition of LS180 carcinoma cell binding to immobilized P-selectin” value (P-selectin) was “no ability to inhibit either P- or L-selectin”, the “inhibition of LS180 carcinoma cell binding to immobilized P-selectin” value (P-selectin; listed as Fondaparinux) was “no selectin inhibitory activity” and the “inhibition of LS180 carcinoma cell binding to immobilized L-selectin” value (L-selectin) was “no ability to inhibit either P- or L-selectin”. The “inhibition of LS180 carcinoma cell binding to immobilized L-selectin” value (L-selectin; listed as Fondaparinux) was “no selectin inhibitory activity”, the “metastasis (fluorescence of lung homogenate)” value (MC38GFP cells; 1× dose s.c. 30 min before i.v. MC38GFP cells, results not statistically significant) was “trend in reduction of metastasis that matched the observed in vitro selectin inhibition activity (i.e., UFH>TINZ>>FOND)” and the “metastasis (fluorescence of lung homogenate)” value (MC38GFP cells; 3× dose s.c. 30 min before i.v. MC38GFP cells) was “no significant difference between FOND and PBS”. For the same compound, the hematogenous metastasis (MC38GFP cells; given at similar clinically tolerable levels of anticoagulation as unfractionated heparin) was “no effect on hematogenous metastasis” and the “metastasis (lung weight)” value (B16F1 cells) was “no effect on metastasis”.
